# Data taken from PubChem BioAssay AID328 (DTP/NCI, 2004).
# The list shows only some results of the screen, not a fair sample: it gathers tests that were run many times, whatever their T/C, doses with no T/C, and many T/C values between a quarter and a half above the control. Further doses and runs are listed elsewhere. T/C gives the treated animals as a percentage of the vehicle group. Some doses have a count of surviving animals in place of a T/C: the source holds a T/C of zero for them, seemingly a mark for toxic or unscored doses. Some survivor counts are full or nearly so, which does not show that the dose was tolerated: survival well below the control is almost never listed, so the zero probably covers shortened survival too. Counts of survivors are from the toxicity check (mostly the fifth day) where no day follows; animals may have died later. Schedules are NCI's codes, read here as Q, the interval in days (D) or hours (H), X, the number of doses. Where survival is the endpoint, the PubChem record calls one and a half times the control and up active, and a quarter to a half above the control has no call in these data; cut-offs in other NCI protocols can differ. Marks such as (2×) stand for listed records that agree. Some T/C values carry the count of animals alive at the toxicity check (mostly the fifth day); without a count, all were alive then. Some entries hold several experiments; the results are listed from low to high.
# System: BDF1 mice, P388 leukemia ip, median survival T/C
# Assay: NCI In Vivo Anticancer Drug Screen. Data for tumor model P388 Leukemia (intraperitoneal) in B6D2F1 (BDF1) mice
# Settings: higher T/C = longer survival
# Summary of the method: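 Each value expresses how treatment altered survival: treated-mouse outcome over vehicle-mouse outcome, both groups bearing the transplanted tumour.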
# [1] = T/C endpoint: median survival time, dose: 400.0 mg/kg/injection, schedule: Q01DX009 (ip), vehicle: saline with Tween-80
# [2] = T/C endpoint: median survival time, dose: 50.0 mg/kg/injection, schedule: Q04DX003 (ip), vehicle: saline
# [3] = T/C endpoint: median survival time, dose: 100.0 mg/kg/injection, schedule: Q01DX009 (ip), vehicle: Klucel (hydroxypropylcellulose) (HPC)
# [4] = T/C endpoint: median survival time, dose: 2.5 mg/kg/injection, schedule: Q01DX009 (ip), vehicle: saline
# [5] = T/C endpoint: median survival time, dose: 200.0 mg/kg/injection, schedule: Q01DX009 (ip), vehicle: saline with Tween-80
smiles,measurement,setting,value
CN1CCC(CN2c3ccccc3Sc3ccccc32)CC1,survivor count,"T/C endpoint: median survival time, dose: 1.56 mg/kg/injection, schedule: Q01DX009 (ip), vehicle: Klucel (hydroxypropylcellulose) (HPC)",6 of 6
same,survivor count,"T/C endpoint: median survival time, dose: 6.25 mg/kg/injection, schedule: Q01DX009 (ip), vehicle: Klucel (hydroxypropylcellulose) (HPC)",6 of 6
same,survivor count,"T/C endpoint: median survival time, dose: 400.0 mg/kg/injection, schedule: Q04DX003 (ip), vehicle: saline with Tween-80",0 of 6
Cc1ccc(NC(=S)NCCc2ccccn2)cc1C,T/C,[1],126 % of control
CCN(CC)Cc1cc(Nc2c3ccc([N+](=O)[O-])cc3nc3ccc(OC)cc23)ccc1O,survivor count,"T/C endpoint: median survival time, dose: 12.5 mg/kg/injection, schedule: Q01DX009 (ip), vehicle: saline",6 of 6
same,T/C,[2],128 % of control
C/C=C(\C)C(=O)OCC1CC[N+](C)([O-])C1 (stereo not given),survivor count,"T/C endpoint: median survival time, dose: 800.0 mg/kg/injection, schedule: Q01DX009 (ip), vehicle: water",2 of 4
O=C1OC(=O)C2C1C1C3C=CC3C1C21C=C1 (stereo not given),T/C,"T/C endpoint: median survival time, dose: 200.0 mg/kg/injection, schedule: Q01DX001 (ip), vehicle: saline",129 % of control [5 of 6 alive]
C=C1CC(c2ccc(S(=O)(=O)N3CCOCC3)cc2)OC1=O (stereo not given),T/C,"T/C endpoint: median survival time, dose: 12.5 mg/kg/injection, schedule: Q01DX009 (ip), vehicle: Klucel (hydroxypropylcellulose) (HPC)",147 % of control
same,T/C,"T/C endpoint: median survival time, dose: 25.0 mg/kg/injection, schedule: Q01DX009 (ip), vehicle: Klucel (hydroxypropylcellulose) (HPC)",144 % of control
same,survivor count,"T/C endpoint: median survival time, dose: 50.0 mg/kg/injection, schedule: Q01DX009 (ip), vehicle: Klucel (hydroxypropylcellulose) (HPC)",4 of 6
same,survivor count,[3],0 of 6
NP(=O)(N1CC1)N1CC1,T/C,"T/C endpoint: median survival time, dose: 12.5 mg/kg/injection, schedule: Q04DX003 (ip), vehicle: saline",135 % of control
CCSCCSCC,survivor count,[1],6 of 6
CCCCC(=O)NC(=O)c1ccccc1,survivor count,[1],6 of 6
CCOC(=O)/C(C#N)=C/N=c1ccccn1C,survivor count,"T/C endpoint: median survival time, dose: 100.0 mg/kg/injection, schedule: Q04DX002 (ip), vehicle: saline with Tween-80",0 of 6
same,survivor count,"T/C endpoint: median survival time, dose: 200.0 mg/kg/injection, schedule: Q04DX002 (ip), vehicle: saline with Tween-80",0 of 6
same,survivor count,"T/C endpoint: median survival time, dose: 400.0 mg/kg/injection, schedule: Q04DX002 (ip), vehicle: saline with Tween-80",0 of 6
O=I(=O)c1ccccc1,T/C,"T/C endpoint: median survival time, dose: 25.0 mg/kg/injection, schedule: Q01DX009 (ip), vehicle: saline with Tween-80",140 % of control
same,survivor count,[3],6 of 6
same,survivor count,"T/C endpoint: median survival time, dose: 200.0 mg/kg/injection, schedule: Q01DX009 (ip), vehicle: Klucel (hydroxypropylcellulose) (HPC)",1 of 6
Cn1c(=O)c2nc(-c3ccc(Cl)cc3)c(-c3ccc(Cl)cc3)nc2n(C)c1=O,survivor count,"T/C endpoint: median survival time, dose: 400.0 mg/kg/injection, schedule: Q01DX001 (ip), vehicle: saline with Tween-80",5 of 6
NC(=O)c1[nH]nc(C2OC(CO)C(O)C2O)c1O (stereo not given),T/C,"T/C endpoint: median survival time, dose: 0.5 mg/kg/injection, schedule: Q01DX009 (ip), vehicle: saline",129 % of control
same,T/C,[4],158 and 172 % of control
same,survivor count,[4],6 of 6
same,survivor count,"T/C endpoint: median survival time, dose: 5.0 mg/kg/injection, schedule: Q01DX009 (ip), vehicle: saline",6 of 6
same,survivor count,"T/C endpoint: median survival time, dose: 10.0 mg/kg/injection, schedule: Q01DX009 (ip), vehicle: saline",6 of 6
same,survivor count,"T/C endpoint: median survival time, dose: 20.0 mg/kg/injection, schedule: Q01DX009 (ip), vehicle: saline",6 of 6
same,survivor count,"T/C endpoint: median survival time, dose: 40.0 mg/kg/injection, schedule: Q01DX009 (ip), vehicle: saline",1 of 6
same,survivor count,"T/C endpoint: median survival time, dose: 80.0 mg/kg/injection, schedule: Q01DX009 (ip), vehicle: saline",0 of 6
NC(=O)C1(NC2CCCCC2)CCN(Cc2ccccc2)CC1,survivor count,"T/C endpoint: median survival time, dose: 200.0 mg/kg/injection, schedule: Q01DX009 (ip), vehicle: gum acacia",3 of 6
same,survivor count,"T/C endpoint: median survival time, dose: 200.0 mg/kg/injection, schedule: Q04DX003 (ip), vehicle: gum acacia",4 of 6
CC(C)Cn1cnc2c(Sc3c([N+](=O)[O-])ncn3C)nc(N)nc21,T/C,[3],127 and 130 % of control [4 of 6 alive]
same,survivor count,[3],6 of 6
same,T/C,"T/C endpoint: median survival time, dose: 150.0 mg/kg/injection, schedule: Q01DX009 (ip), vehicle: Klucel (hydroxypropylcellulose) (HPC)",130 % of control [5 of 6 alive]
same,T/C,"T/C endpoint: median survival time, dose: 264.0 mg/kg/injection, schedule: Q04DX003 (ip), vehicle: Klucel (hydroxypropylcellulose) (HPC)",131 % of control (2×)
same,survivor count,"T/C endpoint: median survival time, dose: 400.0 mg/kg/injection, schedule: Q01DX009 (ip), vehicle: Klucel (hydroxypropylcellulose) (HPC)",6 of 6
same,T/C,"T/C endpoint: median survival time, dose: 400.0 mg/kg/injection, schedule: Q04DX003 (ip), vehicle: Klucel (hydroxypropylcellulose) (HPC)",131 % of control
C1CCc2nnnn2CC1,survivor count,"T/C endpoint: median survival time, dose: 37.5 mg/kg/injection, schedule: Q04DX003 (ip), vehicle: saline",6 of 6
same,survivor count,"T/C endpoint: median survival time, dose: 50.0 mg/kg/injection, schedule: Q01DX009 (ip), vehicle: saline",5 of 6
same,survivor count,"T/C endpoint: median survival time, dose: 75.0 mg/kg/injection, schedule: Q04DX003 (ip), vehicle: saline",0 of 6
CCC1(O)CC(OC2CC(N(C)C)C(OC3CC4OC5CC(=O)C(C)OC5OC4C(C)O3)C(C)O2)c2c(cc3c(c2O)C(=O)c2c(O)ccc(O)c2C3=O)C1C(=O)OC (stereo not given),T/C,"T/C endpoint: mean survival time, dose: 0.19 mg/kg/injection, schedule: Q01DX010 (ip), vehicle: saline",125 % of control
same,survivor count,"T/C endpoint: mean survival time, dose: 3.0 mg/kg/injection, schedule: Q01DX010 (ip), vehicle: saline",6 of 6
same,survivor count,"T/C endpoint: mean survival time, dose: 6.0 mg/kg/injection, schedule: Q01DX010 (ip), vehicle: saline",0 of 6
same,survivor count,"T/C endpoint: mean survival time, dose: 12.0 mg/kg/injection, schedule: Q01DX010 (ip), vehicle: saline",0 of 6
same,T/C,"T/C endpoint: median survival time, dose: 0.75 mg/kg/injection, schedule: Q01DX001 (ip), vehicle: saline, evaluated on day 30",133 % of control
same,T/C,"T/C endpoint: median survival time, dose: 0.75 mg/kg/injection, schedule: Q01DX001 (ip), vehicle: saline, run until all animals had died",125 % of control
same,T/C,"T/C endpoint: median survival time, dose: 1.04 mg/kg/injection, schedule: Q04DX003 (ip), vehicle: water",148 % of control
same,T/C,"T/C endpoint: median survival time, dose: 1.44 mg/kg/injection, schedule: Q04DX003 (ip), vehicle: water",140 % of control
same,T/C,"T/C endpoint: median survival time, dose: 1.5 mg/kg/injection, schedule: Q01DX001 (ip), vehicle: saline, evaluated on day 30",133 % of control
same,T/C,"T/C endpoint: median survival time, dose: 1.5 mg/kg/injection, schedule: Q01DX001 (ip), vehicle: saline, run until all animals had died",135 % of control
same,T/C,"T/C endpoint: median survival time, dose: 2.5 mg/kg/injection, schedule: Q01DX001 (ip), vehicle: saline",133 % of control
same,T/C,"T/C endpoint: median survival time, dose: 2.88 mg/kg/injection, schedule: Q04DX003 (ip), vehicle: water",135 % of control
same,survivor count,"T/C endpoint: median survival time, dose: 3.6 mg/kg/injection, schedule: Q04DX003 (ip), vehicle: water",8 of 8
same,survivor count,"T/C endpoint: median survival time, dose: 4.0 mg/kg/injection, schedule: Q04DX003 (ip), vehicle: water",8 of 8
same,survivor count,"T/C endpoint: median survival time, dose: 4.8 mg/kg/injection, schedule: Q04DX003 (ip), vehicle: water",7 of 8
same,survivor count,"T/C endpoint: median survival time, dose: 6.0 mg/kg/injection, schedule: Q04DX003 (ip), vehicle: water",1 of 8
CCCc1cc(CCC)n2nc(N)nc2n1,survivor count,[5],3 of 6
CC(Cl)CN(CC(C)Cl)c1ccc(S(=O)(=O)Nc2ncccn2)cc1 (stereo not given),T/C,"T/C endpoint: median survival time, dose: 18.0 mg/kg/injection, schedule: Q01DX009 (ip), vehicle: gum acacia",144 % of control
same,survivor count,"T/C endpoint: median survival time, dose: 300.0 mg/kg/injection, schedule: Q01DX009 (ip), vehicle: gum acacia",5 of 6
CN1CCN(C(=O)N2c3ccccc3Sc3ccccc32)CC1,survivor count,"T/C endpoint: median survival time, dose: 25.0 mg/kg/injection, schedule: Q04DX003 (ip), vehicle: saline",6 of 6
same,survivor count,[2],6 of 6
same,survivor count,"T/C endpoint: median survival time, dose: 100.0 mg/kg/injection, schedule: Q04DX003 (ip), vehicle: saline",6 of 6
CN1CCN(C2=Nc3ccccc3Cc3ccccc32)CC1,survivor count,"T/C endpoint: median survival time, dose: 100.0 mg/kg/injection, schedule: Q01DX009 (ip), vehicle: saline with Tween-80",5 of 6
same,survivor count,[5],1 of 6
